From patent US20230203100A1 (Pep2Tango Therapeutics Inc., priority 2021, published 2023)

Legend:
[1] = general procedure: Fmoc solid-phase peptide synthesis; polystyrene or PEG based resins; TentaGel RAM resin (0.18 mmol/g) for Peptide No. 12; conditions: whole synthesis, analytical reverse-phase HPLC (Dionex UltiMate 3000), acetate salt
[2] = Fmoc solid-phase peptide synthesis; polystyrene or PEG based resins; TentaGel RAM resin (0.18 mmol/g) for Peptide No. 12; conditions: whole synthesis, analytical reverse-phase HPLC (Dionex UltiMate 3000), acetate salt

Row | Substance | final HPLC purity [1] | final HPLC purity [2]
1 | (d)YAEGTFTSDYSIALDKIAQQAFVQWLLAGGPSCNTATCVLGRLSQELHRLQTYPRTNTGK*-N-T-Y-NH2 | 88.5% | –
2 | (d)YAEGTFTSDYSIQLDKIAQQAFVQWLLAGGPSCNTATCVLGRLSQELHRLQTYPRTNTGK*-N-T-Y-NH2 | – | 89.9%
3 | (d)YAEGTFTSDYSIQLDKIAQQAFVQWLLAGSGCN-TA-TCATQRLANFLVHSSNNFGPILPPTNVGK*-N-T-Y-NH2 | – | 91.7%
4 | (d)YAEGTFTSDYSIQLDKIAQQAFVQWLLAGSGCN-TA-TCVLGRLSQELHRLQTYPRTNTGK*-N-T-Y-NH2 | – | 82.8%
5 | Y-(d)AEGTFTSDYSIALDKIAQQAFVQWLLAGGPSCNTATCVLGRLSQELHRLQTYPRTNTGK*-N-T-Y-NH2 | 83.6% | –
6 | Y-Aib-E-G-T-F-T-S-D-Y-S-I-Aib-L-D-K-I-A-Q-K*-AFVQWLLAGGPSCNTATCATQRLANFLVHSSNNFGPILPPTNVGSNTY-NH2 | 98.7% | –
